Assay in all cases: affinity purification with mass spectrometry
Assay [1] addresses SLC25A1 (endogenous) (human (endogenous in HAP1)) (UniProt P53007).
The target of the next assay is FLAG-SLC25A1 (human) (UniProt P53007).
For assay [2], the target named is SLC25A1 (endogenous) (human (endogenous in HAP1)) (UniProt P53007). The source holds these as a separate data set.

Amino acid sequences for entries named in this document (tags omitted).
UniProt P53396: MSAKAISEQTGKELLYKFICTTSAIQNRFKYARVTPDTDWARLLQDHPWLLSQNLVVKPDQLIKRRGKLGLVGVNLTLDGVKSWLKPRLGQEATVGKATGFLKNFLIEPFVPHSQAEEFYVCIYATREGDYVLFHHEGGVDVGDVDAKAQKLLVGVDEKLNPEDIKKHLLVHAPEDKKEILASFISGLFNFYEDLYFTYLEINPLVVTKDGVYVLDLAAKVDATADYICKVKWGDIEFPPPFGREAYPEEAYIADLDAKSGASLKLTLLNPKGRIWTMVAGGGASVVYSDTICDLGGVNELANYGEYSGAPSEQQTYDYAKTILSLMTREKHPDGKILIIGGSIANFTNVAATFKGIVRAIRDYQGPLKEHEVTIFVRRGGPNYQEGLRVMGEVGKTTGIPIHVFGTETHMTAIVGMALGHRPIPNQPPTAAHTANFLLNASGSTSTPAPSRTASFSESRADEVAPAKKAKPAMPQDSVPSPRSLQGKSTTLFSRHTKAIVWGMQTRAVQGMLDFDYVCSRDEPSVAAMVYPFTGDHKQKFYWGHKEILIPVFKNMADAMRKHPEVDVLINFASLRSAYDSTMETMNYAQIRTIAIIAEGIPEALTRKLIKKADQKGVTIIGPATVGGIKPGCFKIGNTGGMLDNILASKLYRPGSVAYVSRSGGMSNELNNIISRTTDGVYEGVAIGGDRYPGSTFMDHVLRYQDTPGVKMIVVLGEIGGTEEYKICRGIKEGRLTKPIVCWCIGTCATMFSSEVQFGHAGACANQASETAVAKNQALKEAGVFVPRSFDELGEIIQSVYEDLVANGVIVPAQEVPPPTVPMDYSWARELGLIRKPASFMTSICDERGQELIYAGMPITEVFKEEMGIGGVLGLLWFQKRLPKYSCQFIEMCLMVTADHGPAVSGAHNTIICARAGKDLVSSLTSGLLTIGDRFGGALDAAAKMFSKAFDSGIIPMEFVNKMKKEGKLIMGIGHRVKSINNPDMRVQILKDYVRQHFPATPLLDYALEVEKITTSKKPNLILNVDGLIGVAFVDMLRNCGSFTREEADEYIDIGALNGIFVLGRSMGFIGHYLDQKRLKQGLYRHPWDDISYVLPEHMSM

Where two headings read alike, the source gives them in different places. Results are given in words; binding and its absence hold for the method and conditions named. In cells and extracts the contact can be indirect. Here binding means that the protein was enriched with, or labelled near, the bait; the list need not be complete.

On to “ATP citrate lyase (ACLY) (from UniProt P53396 1-1101)”, for which the binding entry in assay [1] is “binds”.

B1: DDX28 (protein, UniProt Q9NUL7 1-540)
chain: MALTRPVRLFSLVTRLLLAPRRGLTVRSPDEPLPVVRIPVALQRQLEQRQSRRRNLPRPVLVRPGPLLVSARRPELNQPARLTLGRWERAPLASQGWKSRRARRDHFSIERAQQEAPAVRKLSSKGSFADLGLEPRVLHALQEAAPEVVQPTTVQSSTIPSLLRGRHVVCAAETGSGKTLSYLLPLLQRLLGQPSLDSLPIPAPRGLVLVPSRELAQQVRAVAQPLGRSLGLLVRDLEGGHGMRRIRLQLSRQPSADVLVATPGALWKALKSRLISLEQLSFLVLDEADTLLDESFLELVDYILEKSHIAEGPADLEDPFNPKAQLVLVGATFPEGVGQLLNKVASPDAVTTITSSKLHCIMPHVKQTFLRLKGADKVAELVHILKHRDRAERTGPSGTVLVFCNSSSTVNWLGYILDDHKIQHLRLQGQMPALMRVGIFQSFQKSSRDILLCTDIASRGLDSTGVELVVNYDFPPTLQDYIHRAGRVGRVGSEVPGTVISFVTHPWDVSLVQKIELAARRRRSLPGLASSVKEPLPQAT
As to B1, the binding entry with FLAG-SLC25A1 (human) was “binds”.

B2: poly(A) polymerase (MTPAP) (protein, UniProt Q9NVV4 38-582)
chain: KDLRRDEQPSGSVETGFEDKIPKRRFSEMQNERREQAQRTVLIHCPEKISENKFLKYLSQFGPINNHFFYESFGLYAVVEFCQKESIGSLQNGTHTPSTAMETAIPFRSRFFNLKLKNQTSERSRVRSSNQLPRSNKQLFELLCYAESIDDQLNTLLKEFQLTEENTKLRYLTCSLIEDMAAAYFPDCIVRPFGSSVNTFGKLGCDLDMFLDLDETRNLSAHKISGNFLMEFQVKNVPSERIATQKILSVLGECLDHFGPGCVGVQKILNARCPLVRFSHQASGFQCDLTTNNRIALTSSELLYIYGALDSRVRALVFSVRCWARAHSLTSSIPGAWITNFSLTMMVIFFLQRRSPPILPTLDSLKTLADAEDKCVIEGNNCTFVRDLSRIKPSQNTETLELLLKEFFEYFGNFAFDKNSINIRQGREQNKPDSSPLYIQNPFETSLNISKNVSQSQLQKFVDLARESAWILQQEDTDRPSISSNRPWGLVSLLLPSAPNRKSFTKKKSNKFAIETVKNLLESLKGNRTENFTKTSGKRTISTQT
As for B2, the binding result with FLAG-SLC25A1 (human) is recorded as “binds”.

B3: DHX30 (protein, UniProt Q7L2E3 1-1194)
chain: MFSLDSFRKDRAQHRQRQCKLPPPRLPPMCVNPTPGGTISRASRDLLKEFPQPKNLLNSVIGRALGISHAKDKLVYVHTNGPKKKKVTLHIKWPKSVEVEGYGSKKIDAERQAAAAACQLFKGWGLLGPRNELFDAAKYRVLADRFGSPADSWWRPEPTMPPTSWRQLNPESIRPGGPGGLSRSLGREEEEDEEEELEEGTIDVTDFLSMTQQDSHAPLRDSRGSSFEMTDDDSAIRALTQFPLPKNLLAKVIQIATSSSTAKNLMQFHTVGTKTKLSTLTLLWPCPMTFVAKGRRKAEAENKAAALACKKLKSLGLVDRNNEPLTHAMYNLASLRELGETQRRPCTIQVPEPILRKIETFLNHYPVESSWIAPELRLQSDDILPLGKDSGPLSDPITGKPYVPLLEAEEVRLSQSLLELWRRRGPVWQEAPQLPVDPHRDTILNAIEQHPVVVISGDTGCGKTTRIPQLLLERYVTEGRGARCNVIITQPRRISAVSVAQRVSHELGPSLRRNVGFQVRLESKPPSRGGALLFCTVGILLRKLQSNPSLEGVSHVIVDEVHERDVNTDFLLILLKGLQRLNPALRLVLMSATGDNERFSRYFGGCPVIKVPGFMYPVKEHYLEDILAKLGKHQYLHRHRHHESEDECALDLDLVTDLVLHIDARGEPGGILCFLPGWQEIKGVQQRLQEALGMHESKYLILPVHSNIPMMDQKAIFQQPPVGVRKIVLATNIAETSITINDIVHVVDSGLHKEERYDLKTKVSCLETVWVSRANVIQRRGRAGRCQSGFAYHLFPRSRLEKMVPFQVPEILRTPLENLVLQAKIHMPEKTAVEFLSKAVDSPNIKAVDEAVILLQEIGVLDQREYLTTLGQRLAHISTDPRLAKAIVLAAIFRCLHPLLVVVSCLTRDPFSSSLQNRAEVDKVKALLSHDSGSDHLAFVRAVAGWEEVLRWQDRSSRENYLEENLLYAPSLRFIHGLIKQFSENIYEAFLVGKPSDCTLASAQCNEYSEEEELVKGVLMAGLYPNLIQVRQGKVTRQGKFKPNSVTYRTKSGNILLHKSTINREATRLRSRWLTYFMAVKSNGSVFVRDSSQVHPLAVLLLTDGDVHIRDDGRRATISLSDSDLLRLEGDSRTVRLLKELRRALGRMVERSLRSELAALPPSVQEEHGQLLALLAELLRGPCGSFDVRKTADD
As for B3, the binding result with FLAG-SLC25A1 (human) is recorded as “binds”.

B4: RARS (protein, UniProt P54136 1-660)
chain: MDVLVSECSARLLQQEEEIKSLTAEIDRLKNCGCLGASPNLEQLQEENLKLKYRLNILRKSLQAERNKPTKNMINIISRLQEVFGHAIKAAYPDLENPPLLVTPSQQAKFGDYQCNSAMGISQMLKTKEQKVNPREIAENITKHLPDNECIEKVEIAGPGFINVHLRKDFVSEQLTSLLVNGVQLPALGENKKVIVDFSSPNIAKEMHVGHLRSTIIGESISRLFEFAGYDVLRLNHVGDWGTQFGMLIAHLQDKFPDYLTVSPPIGDLQVFYKESKKRFDTEEEFKKRAYQCVVLLQGKNPDITKAWKLICDVSRQELNKIYDALDVSLIERGESFYQDRMNDIVKEFEDRGFVQVDDGRKIVFVPGCSIPLTIVKSDGGYTYDTSDLAAIKQRLFEEKADMIIYVVDNGQSVHFQTIFAAAQMIGWYDPKVTRVFHAGFGVVLGEDKKKFKTRSGETVRLMDLLGEGLKRSMDKLKEKERDKVLTAEELNAAQTSVAYGCIKYADLSHNRLNDYIFSFDKMLDDRGNTAAYLLYAFTRIRSIARLANIDEEMLQKAARETKILLDHEKEWKLGRCILRFPEILQKILDDLFLHTLCDYIYELATAFTEFYDSCYCVEKDRQTGKILKVNMWRMLLCEAVAAVMAKGFDILGIKPVQRM
For B4, the binding result in assay [2] is “binds”.
